PubChem BioAssay AID1508587 – Peter MacCallum Cancer Centre | 2020

- Screen: 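Knockdowns that add to vemurafenib's cut in melanoma glycolysis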 (follow-up of hits)
- System: human WM266.4 melanoma cells with a BRAF V600 mutation
- Reagent: single siRNA against human genes, 25 nM
- Timing: 96 h
- Conditions: vemurafenib 300 nM (about IC25), given 48 h after transfection for 48 h
- Measurement: 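Medium lactate read by absorbance over DAPI-counted nuclei; ratio with versus without vemurafenib, set against non-targeting siRNA, averaged over 2 replicates; cell number also recorded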
- Direction: lactate per cell, drug vs no drug: higher = less drug-induced drop in lactate per cell
- Rule for the call: 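a duplex is active when its lactate-per-cell ratio with versus without drug falls under 0.55, i.e. 2 SD below non-targeting; a gene is confirmed if 2 or more of 4 duplexes pass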
This is an unselected part of about 1,600 reagents tested. 623 of all reagents (39%) count as active. 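Calls are for each duplex; lactate ratios contain extreme outliers.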 The numbers tell different reagents against one gene apart. Not all columns of the deposit are shown. Reagent sequences are not shown.

{"gene": "OR1F1", "siRNA no.": 1, "lactate per cell, drug vs no drug": 0.42, "activity call": "active"}
{"gene": "OR1F1", "siRNA no.": 2, "lactate per cell, drug vs no drug": 1.25, "activity call": "inactive"}
{"gene": "OR1F1", "siRNA no.": 3, "lactate per cell, drug vs no drug": 0.6, "activity call": "inactive"}
{"gene": "OR1F1", "siRNA no.": 4, "lactate per cell, drug vs no drug": 0.7, "activity call": "inactive"}
{"gene": "A1BG", "siRNA no.": 1, "lactate per cell, drug vs no drug": 0.78, "activity call": "inactive"}
{"gene": "A1BG", "siRNA no.": 2, "lactate per cell, drug vs no drug": 0.82, "activity call": "inactive"}
{"gene": "A1BG", "siRNA no.": 3, "lactate per cell, drug vs no drug": 0.49, "activity call": "active"}
{"gene": "A1BG", "siRNA no.": 4, "lactate per cell, drug vs no drug": 1.02, "activity call": "inactive"}
{"gene": "MRPL57", "siRNA no.": 1, "lactate per cell, drug vs no drug": 0.74, "activity call": "inactive"}
{"gene": "MRPL57", "siRNA no.": 2, "lactate per cell, drug vs no drug": 0.29, "activity call": "active"}
{"gene": "MRPL57", "siRNA no.": 3, "lactate per cell, drug vs no drug": 1.39, "activity call": "inactive"}
{"gene": "MRPL57", "siRNA no.": 4, "lactate per cell, drug vs no drug": 0.45, "activity call": "active"}
{"gene": "ZBTB9", "siRNA no.": 1, "lactate per cell, drug vs no drug": 0.5, "activity call": "active"}
{"gene": "ZBTB9", "siRNA no.": 2, "lactate per cell, drug vs no drug": 0.64, "activity call": "inactive"}
{"gene": "ZBTB9", "siRNA no.": 3, "lactate per cell, drug vs no drug": 0.66, "activity call": "inactive"}
{"gene": "ZBTB9", "siRNA no.": 4, "lactate per cell, drug vs no drug": 0.74, "activity call": "inactive"}
{"gene": "SFXN3", "siRNA no.": 1, "lactate per cell, drug vs no drug": 0.37, "activity call": "active"}
{"gene": "SFXN3", "siRNA no.": 2, "lactate per cell, drug vs no drug": 0.66, "activity call": "inactive"}
{"gene": "SFXN3", "siRNA no.": 3, "lactate per cell, drug vs no drug": 0.5, "activity call": "active"}
{"gene": "SFXN3", "siRNA no.": 4, "lactate per cell, drug vs no drug": 0.58, "activity call": "inactive"}
{"gene": "KCNK18", "siRNA no.": 1, "lactate per cell, drug vs no drug": 0.49, "activity call": "active"}
{"gene": "KCNK18", "siRNA no.": 2, "lactate per cell, drug vs no drug": 0.54, "activity call": "active"}
{"gene": "KCNK18", "siRNA no.": 3, "lactate per cell, drug vs no drug": 0.5, "activity call": "active"}
{"gene": "KCNK18", "siRNA no.": 4, "lactate per cell, drug vs no drug": 0.46, "activity call": "active"}
{"gene": "AAK1", "siRNA no.": 1, "lactate per cell, drug vs no drug": 0.81, "activity call": "inactive"}
{"gene": "AAK1", "siRNA no.": 2, "lactate per cell, drug vs no drug": 0.32, "activity call": "active"}
{"gene": "AAK1", "siRNA no.": 3, "lactate per cell, drug vs no drug": 0.47, "activity call": "active"}
{"gene": "AAK1", "siRNA no.": 4, "lactate per cell, drug vs no drug": 0.76, "activity call": "inactive"}
{"gene": "KATNB1", "siRNA no.": 1, "lactate per cell, drug vs no drug": 0.74, "activity call": "inactive"}
{"gene": "KATNB1", "siRNA no.": 2, "lactate per cell, drug vs no drug": 0.53, "activity call": "active"}
{"gene": "KATNB1", "siRNA no.": 3, "lactate per cell, drug vs no drug": 0.74, "activity call": "inactive"}
{"gene": "KATNB1", "siRNA no.": 4, "lactate per cell, drug vs no drug": 0.54, "activity call": "active"}
{"gene": "ACP2", "siRNA no.": 1, "lactate per cell, drug vs no drug": 0.6, "activity call": "inactive"}
{"gene": "ACP2", "siRNA no.": 2, "lactate per cell, drug vs no drug": 0.54, "activity call": "active"}
{"gene": "ACP2", "siRNA no.": 3, "lactate per cell, drug vs no drug": 0.57, "activity call": "inactive"}
{"gene": "ACP2", "siRNA no.": 4, "lactate per cell, drug vs no drug": 0.62, "activity call": "inactive"}

Copied from above (2 entries):
{"gene": "MRPL57", "siRNA no.": 1, "lactate per cell, drug vs no drug": 0.74, "activity call": "inactive"}
{"gene": "MRPL57", "siRNA no.": 2, "lactate per cell, drug vs no drug": 0.29, "activity call": "active"}
